Values from PubChem BioAssay AID1671195 (Yale University, 2021).

Purpose: 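Genes whose knockdown alters LDL uptake in liver cancer cells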 (primary screen)
Cell system: human Huh7 hepatoma cells
Reagent: siRNA pool against human genes, 18 nM
Timing: about 2 to 2.5 days of knockdown, then 8 h LDL uptake
Conditions: DiI-labelled LDL at 30 µg/ml for 8 h, in lipoprotein-deficient serum medium
Read-out: 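Per-cell DiI-LDL intensity by automated imaging; well means scaled to the plate median and given as a robust z-score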
Scale: robust z-score: higher = more LDL uptake after knockdown
Hit rule: 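Active when two or more replicates show a robust z-score above 2 or below -2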
In all, the deposit lists about 22,000 reagents; below is a random part of them. Over the whole deposit, about 1,510 (6.9%) are marked active. 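Active includes knockdowns raising or lowering LDL uptake; positive z-scores mean more uptake, negative mean less.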

The opening 8 records, ahead of the listing:
no.	gene	PubChem SID	robust z-score, replicate 1	robust z-score, replicate 2	robust z-score, replicate 3	activity call
1	AOAH	SID442895057	-0.0606	-0.292	-0.0343	inactive
2	WDR54	SID442900986	-0.833	-1.21	-0.466	inactive
3	ZFAND2A	SID442896631	-0.578	-0.000336	-0.305	inactive
4	KCNJ4	SID442890604	0.357	0.0347	0.786	inactive
5	SERHL	SID442886364	1.36	1.18	1	inactive
6	SMC1A	SID442904382	-1.79	-1.65	-1.4	inactive
7	LOC390812 (retired record)	SID442900337	-0.782	-0.685	-0.775	inactive
8	CHMP6	SID442898473	-0.604	-0.0712	-0.834	inactive

Results, from the start:
no.	gene	PubChem SID	robust z-score, replicate 1	robust z-score, replicate 2	robust z-score, replicate 3	activity call
1	AOAH	SID442895057	-0.0606	-0.292	-0.0343	inactive
2	WDR54	SID442900986	-0.833	-1.21	-0.466	inactive
3	ZFAND2A	SID442896631	-0.578	-0.000336	-0.305	inactive
4	KCNJ4	SID442890604	0.357	0.0347	0.786	inactive
5	SERHL	SID442886364	1.36	1.18	1	inactive
6	SMC1A	SID442904382	-1.79	-1.65	-1.4	inactive
7	LOC390812 (retired record)	SID442900337	-0.782	-0.685	-0.775	inactive
8	CHMP6	SID442898473	-0.604	-0.0712	-0.834	inactive
9	OR5K1	SID442884969	1.5	1.92	1.84	inactive
10	SYT14	SID442886433	1.16	1.04	1.29	inactive
11	ZNF397	SID442899791	-0.433	-0.681	-0.896	inactive
12	TAF5L	SID442899835	-0.754	-0.663	-0.61	inactive
13	CHST15	SID442889439	1.63	0.248	-0.198	inactive
14	LOC339997 (retired record)	SID442897671	-0.56	-0.372	-0.304	inactive
15	NGEF	SID442894463	-0.077	-0.591	0.469	inactive
16	TNMD	SID442896476	-0.219	-0.283	-0.329	inactive
17	ENO1	SID442887391	1.48	-0.139	1.43	inactive
18	RGS9	SID442890457	0.144	0.582	0.519	inactive
19	NOD2	SID442895646	-0.0444	-0.405	-0.12	inactive
20	SEPTIN5	SID442897706	-0.72	-0.416	-0.11	inactive
21	NRAP	SID442890814	0.0512	0.919	0.127	inactive
22	LINC02796	SID442889726	0.448	0.671	0.434	inactive
23	BIN1	SID442890456	0.617	0.192	0.435	inactive
24	DTD1	SID442897202	-0.638	-0.0653	-0.371	inactive
25	LOC389089 (retired record)	SID442903987	-1.49	-1.52	-1.36	inactive
26	SLC48A1	SID442891639	1.51	-0.715	-0.014	inactive
27	PCDHA7	SID442899929	-0.987	-0.606	-0.472	inactive
28	LOC390638	SID442902160	-0.525	-1.06	-1.48	inactive
29	TMEM223	SID442888881	0.704	0.142	1.09	inactive
30	SLC9A8	SID442887138	0.743	0.608	1.58	inactive
31	FAM20A	SID442888859	0.625	-0.262	1.58	inactive
32	KDM4E	SID442899631	-0.615	-0.523	-0.806	inactive
33	LOC441107 (retired record)	SID442897190	-0.0291	-0.814	-0.226	inactive
34	GPC3	SID442890659	0.221	-0.202	1.14	inactive
35	LOC441260 (retired record)	SID442895778	-0.0777	-0.169	-0.37	inactive
36	PCSK1	SID442903280	-1.05	-1.64	-1.1	inactive
37	TEDDM1	SID442901719	-1.04	-0.967	-0.827	inactive
38	IER2	SID442897733	0.26	-0.283	-1.23	inactive
39	MRPL54	SID442889530	-0.592	1.35	0.875	inactive
40	AKAP6	SID442896142	-0.587	0.148	-0.287	inactive
41	TBX22	SID442896588	-0.37	-0.284	-0.215	inactive
42	DTNBP1	SID442900622	-0.81	-1.23	-0.316	inactive
43	PTPN7	SID442884823	2.2	1.63	1.73	inactive
44	RBPMS2	SID442899742	-0.629	-0.869	-0.491	inactive
45	SIRT6	SID442887409	0.257	2.47	0.0311	inactive
46	DCLK1	SID442890060	1.34	-0.229	0.298	inactive
47	PAXBP1	SID442890492	0.321	0.273	0.637	inactive
48	TDRD3	SID442886694	0.554	1.1	1.6	inactive
49	TMEM208	SID442892376	0.804	-0.603	0.324	inactive
50	LETR1	SID442886127	0.0393	1.99	1.75	inactive
51	OSBPL2	SID442892728	0.018	0.329	0.0448	inactive
52	OSBPL2	SID442904675	-1.66	-1.96	-1.79	inactive
53	RPSAP24	SID442902050	-0.366	-1.37	-1.27	inactive
54	SLC22A4	SID442888043	0.701	0.84	0.833	inactive
55	TMEM257 (retired record)	SID442898426	-0.416	-0.489	-0.585	inactive
56	HNRNPABP1	SID442904203	-1.4	-1.43	-1.75	inactive
57	KRCC1	SID442900355	0.822	-1.47	-1.6	inactive
58	POPDC3	SID442889030	0.802	0.83	0.237	inactive
59	LUM	SID442893380	0.146	-0.641	0.67	inactive
60	KRT27	SID442895383	-0.139	-0.18	-0.174	inactive
61	OR5H6	SID442892517	-0.149	0.121	0.5	inactive
62	LOC441039 (retired record)	SID442904347	-1.29	-1.67	-1.82	inactive
63	CDH10	SID442895844	-0.319	-0.215	-0.102	inactive
64	HBEGF	SID442893278	-0.72	1.68	-0.759	inactive
65	ZNF17	SID442887507	0.728	1.1	0.867	inactive
66	FTLP2	SID442897858	-0.768	-0.419	-0.112	inactive
67	LINC00324	SID442893258	0.0619	0.18	-0.0283	inactive
68	PRSS45P	SID442901432	-1.06	-0.243	-1.39	inactive
69	RRN3P1	SID442890721	0.0329	0.318	0.782	inactive
70	CYP26C1	SID442894846	-0.123	-0.294	0.0981	inactive
71	ANKRD20A11P	SID442900579	-0.761	-0.734	-0.839	inactive
72	LOC440286 (retired record)	SID442895439	-0.23	-0.311	0.0343	inactive
73	PPIAP87	SID442896622	-0.328	-0.472	-0.0811	inactive
74	NDUFV3	SID442897902	0.0216	-0.576	-0.757	inactive
75	LOC389230 (retired record)	SID442898270	-0.743	-0.261	-0.436	inactive
76	PPIE	SID442897981	-0.469	-0.0373	-0.835	inactive
77	STAT3	SID442884737	-1.9	-1.83	-1.98	inactive
78	LOC400849 (retired record)	SID442903921	-1.51	-1.5	-1.29	inactive
79	PPP1R1B	SID442896322	0.0851	-0.639	-0.225	inactive
80	OR2W5	SID442896995	-0.463	0.0861	-0.629	inactive
81	LOC440237 (retired record)	SID442903837	-1.65	-1.12	-1.44	inactive
82	NPM1P22	SID442895820	-0.375	-0.244	-0.0102	inactive
83	RAB11FIP1	SID442886691	1.44	0.942	0.882	inactive
84	NOL10	SID442886623	1.06	1.01	1.24	inactive
85	FXYD7	SID442904482	-1.58	-1.93	-1.49	inactive
86	HLA-DMB	SID442894679	-0.356	0.324	-0.238	inactive
87	NAPEPLD	SID442896915	-0.49	-0.453	-0.0362	inactive
